Data on five molecules can be found in the supplement of paper PMC4635364.

Where a name gives a salt, the structure may show the parent alone. The list shows a part of the results. Repeats in this data set agree poorly, so a single value says little.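 Cells: ReNCell VM human fetal ventral-midbrain neural progenitors, differentiated mitogen-free. Blinded raters compared doublecortin-stained (early neurons) or tyrosine hydroxylase-stained (dopaminergic neurons) images with untreated wells, where 0 means no change. After repeats and both raters were averaged, compounds scoring 2 or above became hits for retesting.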

In the assay the test system is ReNCell VM. The assay can be described thus: neuronal differentiation score (DCX+ cell fraction vs untreated, manual image score) (score (-3 to 3)); higher = more neuronal differentiation. To be noted: library: LOPAC; 2 uM; 2 weeks.
Take `O=[N+]([O-])c1ccc(O[C@@H]2O[C@H](CO)[C@@H](O)[C@H](O)[C@H]2F)c([N+](=O)[O-])c1` [2,4-Dinitrophenyl 2-fluoro-2-deoxy-beta-D-glucopyranoside]: the neuronal differentiation score is inactive: 0.
For the molecule `C[N+]1(C)C2CCC1CC(OC(=O)c1c[nH]c3ccccc13)C2` (stereo not given) [3-Tropanylindole-3-carboxylate methiodide], the neuronal differentiation score is inactive: 0.
The result for `CCCN1CCC[C@@H](c2cccc(C#N)c2)C1` [S(-)-DS 121 hydrochloride] reads inactive: 0; that for `CCN(CC)C(=O)NC1CC2c3cccc4[nH]cc(c34)CC2N(C)C1` (stereo not drawn) [R(+)-Terguride], inactive: 0.
Next, `N[C@@H](Cn1oc(=O)[nH]c1=O)C(=O)O` [(+)-Quisqualic acid]: inactive: 0.
